From publication PMC7376950
Results are given in words; binding and its absence hold for the method and conditions named. Binding seen in cells or lysates may run through a third protein. Some entries that bind do so weakly or less than the wild type. Where a sequence is shown, tags or fusion partners need not be part of it.

Amino acid sequences for entries named in this document (tags omitted).
UniProt P48432: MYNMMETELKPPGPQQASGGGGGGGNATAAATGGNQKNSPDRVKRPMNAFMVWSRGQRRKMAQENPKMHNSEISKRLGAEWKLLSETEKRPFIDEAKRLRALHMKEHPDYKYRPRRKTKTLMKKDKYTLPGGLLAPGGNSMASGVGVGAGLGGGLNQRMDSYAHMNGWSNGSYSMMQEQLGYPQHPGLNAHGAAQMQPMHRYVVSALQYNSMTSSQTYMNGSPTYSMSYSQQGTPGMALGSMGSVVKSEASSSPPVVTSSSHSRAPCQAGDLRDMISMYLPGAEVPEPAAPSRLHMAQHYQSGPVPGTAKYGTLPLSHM

Molecular target: His-tagged Sox2 recombinant protein (mouse) (UniProt P48432)
Test: pull-down; His-tagged Sox2 from E. coli held on Ni-NTA beads; equalised 293T lysates with GST-Ddx56 or GST-Ddx56 ΔC-ter added, 4 h at 4 °C; western blot with anti-GST and anti-Sox2; only the target purified

binding: binds
B1: Ddx56-GST (full-length mouse DEAD-box helicase 56, GST-tagged) (protein, UniProt Q9D0R4 1-546)
chain: MEDQEALGFEHMGLDPRLLQAVTDLGWSRPTLIQEKAIPLALEGKDLLARARTGSGKTAAYAIPMLQSLLHKKATGPVMEQAVRGLVLVPTKELARQAQAMIQQLAAYCARDVRVANVSAAEDSASQRAVLMEKPDVVVGTPSRVLSHLQQNTLKLRDSLELLVVDEADLLFSFGFEDELKSLLCHLPRIYQAFLMSATFNEDVQTLKELVLHNPVTLKLQESQLPGPDQLQQFQVVCETEEDKFLLLYALLKLSLIRGKALLFVNTLERGYRLRLFLEQFSIPSCVLNGELPLRSRCHIISQFNQGLYDCVIATDAEILGPQVKGKRRGRGSKGNKASDPESGVARGIDFHHVSAVLNFDLPPTAEAYVHRAGRTARANNPGIVLTFVLPAEQPFLGKIEDLLSGEGEAPILLPYQFQMEEIESFRYRCRDAMRSVTKQAIREARLKEIKEELLHSEKLKTYFEDNPRDLQLLRHDLPLHPAVVKPHLGHVPDYLVPAALRGLVHPRKKRRKVPFSRKAKKVKAQNPLRDFKHRGKKPKPAAKPS
